Primary screen of a compound library

Protein sequences, listed by entry. Tags and fused reporters are not part of them.
UniProt P9WPC5, whole entry: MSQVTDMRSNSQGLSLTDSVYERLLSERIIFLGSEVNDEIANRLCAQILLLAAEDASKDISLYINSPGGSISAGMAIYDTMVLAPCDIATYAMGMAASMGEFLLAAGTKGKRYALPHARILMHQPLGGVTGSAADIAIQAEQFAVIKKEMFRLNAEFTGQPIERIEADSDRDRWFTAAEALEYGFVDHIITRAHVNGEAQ
UniProt P9WPC3, whole entry partner: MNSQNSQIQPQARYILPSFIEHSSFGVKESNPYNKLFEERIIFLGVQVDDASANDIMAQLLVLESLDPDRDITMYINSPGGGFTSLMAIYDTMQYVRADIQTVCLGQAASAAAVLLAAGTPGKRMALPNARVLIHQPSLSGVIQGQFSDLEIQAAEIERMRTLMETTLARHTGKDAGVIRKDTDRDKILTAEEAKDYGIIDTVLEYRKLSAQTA

Results are given as percent effect.
The record does not define 0% and 100%; most values in the screen are far below 50% and negative numbers occur (in some assays of this library far below -100).
Compounds were drawn at random from those tested, without regard to their results.
A dash means the value is not listed here; it may have been measured.

A: 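Assay of Toxoplasma gondii numbers, read through their beta-galactosidase reporter with a colour substrate. Compounds at 10 µM. Higher reads as fewer parasites (inferred from which compounds were picked for retests). About 67,000 compounds were tested under these conditions; 0.38% (about 260) showed 50% or more at least once.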
B: 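Protease assay of ClpP1P2, read by the AMC dye that it sets free. Target: ClpP1P2, Mycobacterium tuberculosis (UniProt P9WPC5 and UniProt P9WPC3). Concentration: 50 µM. Direction is inferred from only a few compounds that gave an IC50; most scored high, so higher reads as stronger inhibition. Most other retested compounds had strongly negative values. Of about 69,000 compounds tested this way, about 10 (0.015%) reached 50% or more in at least one test.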

| Compound | A | B |
|---|---|---|
| `O=C(Cc1cccc(F)c1)NCCNS(=O)(=O)C1CCCC1` | -14.5% | 4.069% |
| `CS(=O)(=O)N1CCC2(CC1)CC(NCc1ccco1)c1ccccc12.O=C(O)C(F)(F)F` (centres unmarked) | -4.894% | - |
| `CN1CCN(C(=O)c2cccc(OCc3cscn3)c2)CC1` | -1.128% | 9.468% |
| `CN(C(=O)Cc1coc(-c2ccccc2)n1)C1(C#N)CCC1` | 1.942% | 6.733% |
| `O=C(c1cccn1Cc1cccs1)N1CCSCC1` | -3.106% | -7.104% |
| `O=C(CSc1ccccn1)N1CCN(CCO)[C@@H]2CS(=O)(=O)C[C@@H]21` | - | -3.561% |
| `Cc1ccc(-c2nnc(C(C)N3CCn4c(C)nnc4C3)o2)cc1` (centres unmarked) | 7.324% | 7.554% |
| `Clc1ccc(OCCCN2CCN(c3cnccn3)CC2)cc1` | -3.115% | -2.56% |
| `COc1ccc(C[C@H]2CNCC[C@@H]2OC)cc1.O=C(O)C(F)(F)F` | -4.179% | - |
| `O=C(O)C(F)(F)F.[H][C@@]12COC[C@@H](CC(=O)N3CCCCO3)[C@]1([H])CN(Cc1c(C)noc1C)C2` | -17.77% | - |
| `CC(C)c1nc(C2CCCN(C(=O)CCn3ccccc3=O)C2)no1` (centres unmarked) | 2.84% | 3.315% |
| `CN(Cc1nnc(C2CCC2)o1)C(C(N)=O)c1cccc(F)c1` (centres unmarked) | 6.076% | -5.92% |
| `CCc1nnc2n1CCN(C(=O)c1ccnc(N(C)C)c1)C2` | -6.334% | -21.48% |
| `N#Cc1cccnc1N1CCC(OCc2ccccc2)CC1` | 38.01% | -52.7% |
| `CCOc1ccc(NC(C)=O)cc1S(=O)(=O)Nc1nnc(C)s1` | 8.615% | 13.26% |
| `CN1C(=O)CCC12CCCN(C(=O)c1ccncc1F)C2.O=C(O)C(F)(F)F` (centres unmarked) | -14.05% | - |
| `Cc1cccc(-n2cc(C(=O)N3CCCC(n4cccn4)C3)nn2)c1` (centres unmarked) | -7.265% | 15.39% |
| `CN(C)CCCN(CCC#N)C(=O)Nc1ccc2[nH]ccc2c1` | -5.897% | 3.261% |
| `CCc1nnc2n1CCN(C(=O)c1ccc3cc[nH]c3c1)C2` | 8.604% | -17.98% |
| `CC(=O)NCCCC(=O)NC(C)c1nnc2n1CCC2` (centres unmarked) | 1.152% | -10.03% |
| `Cc1ccc(-c2cc(N)c(=O)n(CC(=O)NC3CCCC3)n2)s1` | 7.321% | 8.761% |
| `Cc1ccc(CNC(=O)N2CCN(Cc3ccsc3)CC2)n1C` | 14.92% | 0.1603% |
| `Cc1noc(NC(=O)c2ccc(F)cc2)n1` | -4.949% | 0.2762% |
| `CCc1nsc(N2CCCN(C(=O)c3ccc(OC)cc3)CC2)n1` | -2.84% | -6.218% |
| `Cc1ccc(C(=O)N2Cc3c(CN(C)C)nn(C)c3C2)cc1C.O=C(O)C(F)(F)F` | 6.958% | - |
| `Cc1nn2c(-c3cnn(C)c3)nnc2s1` | - | -10.98% |
| `OC(CN1CCCc2cc(OC(F)F)ccc21)Cn1cccn1` (centres unmarked) | 7.303% | 13.51% |
| `CCCc1nnc(N2CCC3(CC2)CN(C)C(=O)O3)o1` | 5.118% | -4.044% |
| `COc1ccc(N)c(N2CCN(C(C)=O)CC2)n1` | -0.911% | 6.323% |
| `CC(=O)N(C)Cc1ccccc1NC(=O)N(C)CCc1cccs1` | -6.564% | -5.091% |
| `CC(C)c1nccn1C1CCCN(C(=O)c2cc(C3CC3)on2)C1` (centres unmarked) | -5.094% | -1.124% |
| `CCn1nc(C)c2ncnc(N(C)Cc3ccco3)c21` | 25.89% | -3.23% |
| `COc1cnc(N2CCC(Oc3ccccc3OC)(C(=O)O)CC2)nc1` | 20.74% | -5.904% |
| `CNCc1cn(C2CCN(C(=O)NCc3ccco3)CC2)nn1` | 11.63% | -4.839% |
| `Cc1ccnc(C2CCN(c3ccnc(C)n3)C2)n1` (centres unmarked) | 17.58% | 25.07% |
| `CC(C)N1CCCC(C(=O)NCCc2csc(-c3ccncc3)n2)C1` (centres unmarked) | 18.52% | 3.31% |
| `COc1ccc(CNC(Cc2ccsc2)c2ccc(C)cn2)c(OC)c1` (centres unmarked) | - | -30.57% |
| `CCn1ccnc1CN(C)C(=O)Cn1ccc2ccccc2c1=O` | 17.86% | 3.47% |
| `COc1ccc(CN2CC[C@H](O)[C@@H]2Cc2cnn(C)c2)cc1.O=C(O)C(F)(F)F` | 12.63% | - |
| `Cn1cc(N2CC3(CCN(CC4CCC4)CC3)OCC2=O)cn1.O=C(O)C(F)(F)F` | -13.33% | - |
| `c1cc(-c2nnc3sc(CCN4CCCC4)nn23)ccn1` | -1.928% | -5.731% |
| `COc1cccc(Cl)c1C(C(=O)O)N1CCC(O)(c2cccnc2)CC1` (centres unmarked) | 7.663% | 5.048% |

For reference, 4 entries once more:

- O=C(O)C(F)(F)F.[H][C@@]12COC[C@@H](CC(=O)N3CCCCO3)[C@]1([H])CN(Cc1c(C)noc1C)C2 | A: -17.77%
- CC(C)c1nc(C2CCCN(C(=O)CCn3ccccc3=O)C2)no1 (centres unmarked) | A: 2.84%; B: 3.315%
- c1cc(-c2nnc3sc(CCN4CCCC4)nn23)ccn1 | A: -1.928%; B: -5.731%
- O=C(CSc1ccccn1)N1CCN(CCO)[C@@H]2CS(=O)(=O)C[C@@H]21 | B: -3.561%

Measurements from “University of Dundee, Small-Polar-MMV Screening Library” (2021), ChEMBL document CHEMBL3988442.